Assay results taken from patent publication US20170204176A1.

Biological target: cynomolgus monkey (Macaca fascicularis) DR5 (cynomolgus monkey (Macaca fascicularis))
Experiment: titration with fluorescence readout (y axis: Log MFI); the text does not describe the assay format

binding	Binder
binds	DR5 mAb 1 (antibody, V domains shown) VH: EVKFLESGGGLVQPGGSLKLSCVASGFDFSRYWMSWVRQAPGKGLEWIGEINPDSNTINYTPSLKDKFIISRDNAKNTLYLQMTKVRSEDTALYYCTRRAYYGNPAWFAYWGQGTLVTVSS VL: DIVLTQSPASLAVSLGQRATISCRASKSVSSSGYSYMHWYQQKPGQPPKVLIFLSSNLDSGVPARFSGSGSGTDFTLNIHPVEDGDAATYYCQHSRDLPPTFGGGTKLEIK
binds	DR5 mAb 2 (antibody, V domains shown) VH: KVQLQQSGAELVKPGASVKLSCKASGYTFTEYILHWVKQKSGQGLEWIGWFYPGNNNIKYNEKFKDKATLTADKSSSTVYMELSRLTSEDSAVYFCARHEQGPGYFDYWGQGTTLTVSS VL: DIVMTQSHKFMSTSVGDRVSITCKASQDVNTAVAWYQQKPGQSPKLLIYWASTRHTGVPDRFTGSGSGTDYTLTIKSVQAEDLTLYYCQQHYITPWTFGGGTKLEIK

No constants are given. Whether binding was seen depends on the method and setting. Binding can be weak; no strength is given.
